According to paper PMC3707052 (Alzheimer's Research & Therapy, 2013):
“And” between values parts separate entries of the source, which are not always exact repeats. Equal values may be shown once.

How the values were obtained:
gamma-secretase [1] = assay: Six-day once-a-day oral dosing PK/PD in Sprague Dawley rats; type: in vivo; conditions: 24 hrs post final dose; for %Aβ40 lowering / %Aβ38 lowering / %Aβ42 lowering: rat brain, vs vehicle; for Brain exposure / Plasma exposure: rat
Method: (§1) Female transgenic mice (Tg2576, 3 months of age; n = 20), wild-type male CD-1 mice (six weeks of age; n = 8 to 12) or wild-type male Sprague Dawley rats (200 to 225 g body weight; n = 12) were utilized to assess in vivo efficacy.
(§2) For wild-type rat and mouse studies, all animals were acclimated to the test facility for a minimum of two days prior to initiation of the study. Compounds were dosed orally in 10:20:70 ethanol/solutol/water or 10:20:70 ethanol/cremaphor/water via oral gavage. Samples were harvested at either at 6 or 24 hrs post dose for Aβ and compound exposure measurements. Blood samples were collected into K2ethylenediaminetetraacetic acid (EDTA) and stored on wet ice until processed to plasma by centrifugation (3,500 rpm at 5°C) within 30 minutes of collection. Each brain was dissected into three parts: left and right hemispheres and cerebellum. Brain tissues were rinsed with ice cold PBS (without Mg^2+ or Ca^2+), blotted dry and weighed. Plasma and cerebella were analyzed for parent drug via liquid chromatography/tandem mass spectrometry (LC/MS/MS). Parent drug levels were compared to a standard curve to establish the plasma and brain levels.
(§3) This protocol is a modification of protocols described by Lanz and Schachter and Rogers et al.. Frozen hemispheres were weighed into tared homogenization tubes (MP Biomedicals#6933050 for rat; MP Biomedicals, Solon, OH, USA) and (Simport#T501-4AT; Simport, Beloeil, Qc, Canada) containing one 5-mm stainless steel bead (Qiagen#69989 for mouse). For every gram of brain, 10 mLs of either 6 M guanidine hydrochloride (wild-type rat and mouse) or 0.2% diethyl amine in 50 mM NaCl (transgenic mouse) was added to the brain-containing tubes on wet ice. Rat hemispheres were homogenized for one minute and mouse hemispheres were homogenized for 30 seconds at the 6.5 setting using the FastPrep-24 Tissue and Cell homogenizer (MP Biomedicals#116004500). Homogenates were rocked for 2 hrs at 4°C, then pre-cleared by ultracentrifugation at 100,000 × g for one hour at 4°C. Pre-cleared wild-type rat and mouse homogenates were concentrated over solid phase extraction (SPE) columns (Oasis HLB 96-well SPE plate 30 μm, Waters#WAT058951; Waters Corp., Milford, MA, USA). Briefly, SPE columns were prepared by wetting with 1 mL of 100% methanol followed by dH20 using vacuum to pull liquids through. Brain homogenates were then added to the prepared columns (1.0 mL from rat and 0.7 mL from wild-type mouse). Columns were washed twice with 1 mL of 10% methanol followed by two 1 mL washes with 30% methanol. Labeled eluent collection tubes (Costar cluster tubes #4413; Corning Inc., Corning, NY, USA) were placed under SPE columns and samples were eluted under very mild vacuum with 300 μL of 2% NH4OH/90% methanol. Eluents were dried to films under vacuum with no heat in a speed vacuum microcentrifuge. Films were resuspended in 150 μL of Meso Scale Discovery (MSD, Gaithersburg, MD, USA) blocking buffer (1% BSA in MSD wash buffer) for one hour at room temperature with occasional vortexing. Transgenic mouse plasma (50 μL) was extracted in 500 μL of 6 M guanidine hydrochloride briefly at room temperature and then 450 μL was concentrated over SPE columns and dried to films as described above. Transgenic plasma films were resuspended in 225 μL of MSD blocking buffer. Pre-cleared transgenic mouse brain homogenates were diluted and neutralized as follows. A volume of 45 μL of pre-cleared transgenic mouse brain homogenates were diluted into 450 μL of blocking buffer and were neutralized with 5 μL of 0.5 M Tris pH 6.8. For Aβ38, Aβ40 and Aβ42 measurements, MSD 96-well multi-spot Human/Rodent (4G8) Aβ triplex ultra-sensitive ELISA plates, which are pre-spotted with three separate spots in each well containing capture antibodies against the unique C-terminal ends of Aβ38, Aβ40 and Aβ42, respectively, were blocked with MSD blocking buffer for one hour at room temperature with orbital shaking. […]

gamma-secretase [2] = assay: Six-day BID oral dosing PK/PD in wild-type CD-1 mice; type: in vivo; conditions: for %Aβ38 lowering / %Aβ40 lowering / %Aβ42 lowering: CD-1 mouse brain, 6 hrs, vs vehicle; for Brain exposure / Plasma exposure: 6 hrs post final dose
Method: as §1, §2, §3

[3] = 10 mg/kg oral QD six days, 10 mg/kg
[4] = 60 mg/kg oral QD six days, 60 mg/kg
[5] = 30 mg/kg oral BID six days, 30 mg/kg
[6] = 50 mg/kg oral BID six days, 50 mg/kg
[7] = CD-1 mouse, 15 mg/kg oral BID six days, 15 mg/kg
[8] = CD-1 mouse, 30 mg/kg oral BID six days, 30 mg/kg
[9] = CD-1 mouse, 50 mg/kg oral BID six days, 50 mg/kg
[10] = CD-1 mouse, BID six days, extrapolated from best-fit line, total

In the case of `CCO[C@@H]([C@H]1C[C@@H](C)[C@H]2[C@@H](O1)[C@H](O)[C@@]1(C)[C@@H]3CC[C@H]4C(C)(C)[C@@H](O[C@H]5CN(C6CN(C(C)C)C6)CCO5)CC[C@@]45C[C@@]35CC[C@]21C)C(C)(C)O` [SPI-1865], the “%Aβ40 lowering” value (gamma-secretase [1]; 10 mg/kg oral QD six days) is reported as 1 ± 2%, the “%Aβ38 lowering” value (gamma-secretase [1]; [3]) is reported as ~25% and 27 ± 3 % and the “%Aβ42 lowering” value (gamma-secretase [1]; [3]) is reported as ~25% and 24 ± 2 %. For the same compound, the “%Aβ40 lowering” value (gamma-secretase [1]; 30 mg/kg oral QD six days) was 8 ± 3%, the “%Aβ38 lowering” value (gamma-secretase [1]; [4]) was 61 ± 2 % and the “%Aβ40 lowering” value (gamma-secretase [1]; [4]) was 26 ± 2%. The “%Aβ42 lowering” value (gamma-secretase [1]; [4]) was 66 ± 1%, the Brain exposure (gamma-secretase [1]; 10 mg/kg oral QD six days) was 4.4 ± 0.2 µM and the Plasma exposure (gamma-secretase [1]; 10 mg/kg oral QD six days) was 8.0 ± 0.4 µM. For the same compound, the Brain exposure (gamma-secretase [1]; 30 mg/kg oral QD six days) was 16 ± 1 µM, the Plasma exposure (gamma-secretase [1]; 30 mg/kg oral QD six days) was 13 ± 1 µM and the Plasma exposure (gamma-secretase [1]; 60 mg/kg oral QD six days) was 19 ± 1 µM. The “%Aβ38 lowering” value (gamma-secretase [2]; 15 mg/kg oral BID six days) was 13 ± 4%, the “%Aβ40 lowering” value (gamma-secretase [2]; 15 mg/kg oral BID six days) was 3 ± 2% and the “%Aβ42 lowering” value (gamma-secretase [2]; 15 mg/kg oral BID six days, 15 mg/kg) was 22% and 22 ± 4%. The “%Aβ38 lowering” value (gamma-secretase [2]; [5]) was 30 ± 3 %, the “%Aβ40 lowering” value (gamma-secretase [2]; [5]) was 11% and 11 ± 2 % and the “%Aβ42 lowering” value (gamma-secretase [2]; [5]) was 39 ± 2% and 39% and 39 ± 3%. The “%Aβ40 lowering” value (gamma-secretase [2]; 50 mg/kg oral BID six days) was 9 ± 2%, the “%Aβ38 lowering” value (gamma-secretase [2]; [6]) was 28 ± 2 % and the “%Aβ42 lowering” value (gamma-secretase [2]; [6]) was 47 ± 2% and 47%. The plasma free-fraction (gamma-secretase [2]; CD-1 mouse, 15 mg/kg BID (low dose), calculated) was 82 nM, the Brain exposure (gamma-secretase [2]; [7]) was 3.6 ± 0.1 µM and the Plasma exposure (gamma-secretase [2]; [7]) was 3.4 ± 0.2 µM. For the same compound, the plasma free-fraction (gamma-secretase [2]; CD-1 mouse, 30 mg/kg BID, calculated) was 105 nM, the Brain exposure (gamma-secretase [2]; [8]) was 8.7 ± 1 µM and 8.7 ± 1.0 µM and the Plasma exposure (gamma-secretase [2]; [8]) was 4.4 ± 0.3 µM. The plasma free-fraction (gamma-secretase [2]; CD-1 mouse, 50 mg/kg BID, calculated) was 182 nM, the Brain exposure (gamma-secretase [2]; [9]) was 22 ± 1 µM and the Plasma exposure (gamma-secretase [2]; [9]) was 7.6 ± 0.3 µM. For the same compound, the “ED50 (brain exposure for 50% brain Aβ42 lowering)” value (gamma-secretase [2]; [10]) was 25.2 µM, the “ED50 (plasma exposure for 50% brain Aβ42 lowering)” value (gamma-secretase [2]; [10]) was 5.9 µM and the “brain exposure for 25% brain Aβ42 lowering” value (gamma-secretase [2]; [10]) was 3.8 µM. The “plasma exposure for 25% brain Aβ42 lowering” value (gamma-secretase [2]; [10]) was 2.3 µM and the brain free-fraction level (gamma-secretase [2]; CD-1 mouse, highest dose (50 mg/kg BID), calculated) was 22 ± 1 nM.
